The exact form of at least one protein or probe is not confirmed. Where cells or extracts were used, other partners may take part. For part of these data: A negative result means that nothing was seen under these conditions. For part of these data: At least one verdict rests on a figure or table, not on a statement of the authors.

Amino acid sequences for entries named in this document (tags omitted). A change or cut given only in a name is not applied to a line headed by its entry.
UniProt Q8BG36: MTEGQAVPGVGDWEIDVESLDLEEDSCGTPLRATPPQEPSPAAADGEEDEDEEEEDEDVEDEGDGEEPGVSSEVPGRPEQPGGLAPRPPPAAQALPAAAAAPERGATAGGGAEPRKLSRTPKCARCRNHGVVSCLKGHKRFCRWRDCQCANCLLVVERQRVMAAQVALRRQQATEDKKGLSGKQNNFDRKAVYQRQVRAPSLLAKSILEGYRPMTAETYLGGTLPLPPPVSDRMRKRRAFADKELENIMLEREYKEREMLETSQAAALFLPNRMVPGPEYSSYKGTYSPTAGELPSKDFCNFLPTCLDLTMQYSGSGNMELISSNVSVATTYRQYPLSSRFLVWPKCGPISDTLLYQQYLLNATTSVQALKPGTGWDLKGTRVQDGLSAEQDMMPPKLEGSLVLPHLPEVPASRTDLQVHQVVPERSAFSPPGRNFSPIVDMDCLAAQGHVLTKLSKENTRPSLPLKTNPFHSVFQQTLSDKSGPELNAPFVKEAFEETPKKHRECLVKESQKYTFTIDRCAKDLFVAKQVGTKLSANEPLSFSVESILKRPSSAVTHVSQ

The source of these data is PMC2848553.

The first data set has as its target Dmrt2-HA (UniProt Q8BG36). The experiment in a line: competition with a labelled probe. Conditions: unlabeled mutant did not abolish binding; LightShift Chemiluminescent EMSA kit; 40 fmol biotin dsDNA with 1 ug HEK293 extract protein (lysis in 15 mM Tris pH 7.4, 0.5% NP40, stored in 25% glycerol); protein in a lysate after overexpression; protein details: HA; label: none (competitor). In general terms: Mobility shift assays separate free from complexed probe on a gel.
Regarding “CTGTTTCCTTGTTTTGATCT (double strand) [mutDmrt2BS1]”, the binding result is recorded as “no binding”.
As for “TCTCTTTTGCTCTCATTTTAA (double strand) [mutDmrt2BS4]”, the binding result is on record as “no binding”.
On the same count and under the same terms, for “TCTGTTTTTCCTTTTATCTC (double strand) [mutDmrt2BS3]” the value was “no binding”.

A further data set has as its target Dmrt2-HA (UniProt Q8BG36). The experiment in a line: EMSA. Conditions: complex disrupted by anti-HA (site not specified); LightShift Chemiluminescent EMSA kit; 40 fmol biotin dsDNA with 1 ug HEK293 extract protein (lysis in 15 mM Tris pH 7.4, 0.5% NP40, stored in 25% glycerol); protein in a lysate after overexpression; protein details: HA; label: 5'-biotin (unlabeled as competitor).
Consider “CTGTTTCCTAGTGTAGATCT (double strand) [Dmrt2BS1]”, for which the binding result is given as “binds”.
For “TCTCTGTAGCTCTCATGTAAA (double strand) [Dmrt2BS4]”, the binding result is “binds”.
Turning to “TCTGTTTTTCCTGTAACCTC (double strand) [Dmrt2BS3]”, the binding result is given as “binds”.
